Measurements: doi:10.1101/2025.11.17.688780
These are yes or no findings as the source states them, for the method shown. Binding seen in cells or lysates may run through a third protein. Some entries that bind do so weakly or less than the wild type. Where a sequence is shown, tags or fusion partners need not be part of it.

Target: T1, Brn1-V5 (S. cerevisiae) (UniProt P38170)
T1 sequence: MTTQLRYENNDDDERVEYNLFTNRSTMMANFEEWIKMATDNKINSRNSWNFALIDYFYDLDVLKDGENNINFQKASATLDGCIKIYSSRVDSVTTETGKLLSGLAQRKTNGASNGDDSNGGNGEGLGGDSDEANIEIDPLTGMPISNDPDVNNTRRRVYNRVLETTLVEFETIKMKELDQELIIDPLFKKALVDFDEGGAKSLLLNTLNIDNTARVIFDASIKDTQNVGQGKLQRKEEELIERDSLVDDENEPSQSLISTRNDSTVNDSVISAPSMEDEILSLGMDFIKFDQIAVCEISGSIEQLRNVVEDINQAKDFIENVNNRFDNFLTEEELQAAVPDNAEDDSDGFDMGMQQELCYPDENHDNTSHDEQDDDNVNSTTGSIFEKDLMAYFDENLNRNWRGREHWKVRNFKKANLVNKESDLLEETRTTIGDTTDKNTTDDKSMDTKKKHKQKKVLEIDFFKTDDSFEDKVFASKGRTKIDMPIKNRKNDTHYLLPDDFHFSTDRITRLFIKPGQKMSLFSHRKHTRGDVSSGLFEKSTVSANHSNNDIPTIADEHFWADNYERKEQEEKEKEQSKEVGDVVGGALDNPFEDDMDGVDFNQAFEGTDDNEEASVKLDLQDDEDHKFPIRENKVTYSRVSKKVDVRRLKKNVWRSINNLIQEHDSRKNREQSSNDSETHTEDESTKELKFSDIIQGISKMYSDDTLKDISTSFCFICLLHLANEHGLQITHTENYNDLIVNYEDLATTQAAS
Test: co-IP

B1: Smc2 K38I, HA tagged (protein, UniProt P38989 1-1170)
chain: MKVEELIIDGFKSYATRTVITDWDPQFNAITGLNGSGISNILDAICFVLGIASMSTVRASSLQDLIYKRGQAGVTKASVTIVFDNTDKSNSPIGFTNSPQISVTRQVVLGGTSKYLINGHRAPQQSVLQLFQSVQLNINNPNFLIMQGKITKVLNMKPSEILSLIEEAAGTKMFEDRREKAERTMSKKETKLQENRTLLTEEIEPKLEKLRNEKRMFLEFQSTQTDLEKTERIVVSYEYYNIKHKHTSIRETLENGETRMKMLNEFVKKTSEEIDSLNEDVEEIKLQKEKELHKEGTISKLENKENGLLNEISRLKTSLSIKVENLNDTTEKSKALESEIASSSAKLIEKKSAYANTEKDYKMVQEQLSKQRDLYKRKEELVSTLTTGISSTGAADGGYNAQLAKAKTELNEVSLAIKKSSMKMELLKKELLTIEPKLKEATKDNELNVKHVKQCQETCDKLRARLVEYGFDPSRIKDLKQREDKLKSHYYQTCKNSEYLKRRVTNLEFNYTKPYPNFEASFVHGVVGQLFQIDNDNIRYATALQTCAGGRLFNVVVQDSQTATQLLERGRLRKRVTIIPLDKIYTRPISSQVLDLAKKIAPGKVELAINLIRFDESITKAMEFIFGNSLICEDPETAKKITFHPKIRARSITLQGDVYDPEGTLSGGSRNTSESLLVDIQKYNQIQKQIETIQADLNHVTEELQTQYATSQKTKTIQSDLNLSLHKLDLAKRNLDANPSSQIIARNEEILRDIGECENEIKTKQMSLKKCQEEVSTIEKDMKEYDSDKGSKLNELKKELKLLAKELEEQESESERKYDLFQNLELETEQLSSELDSNKTLLHNHLKSIESLKLENSDLEGKIRGVEDDLVTVQTELNEEKKRLMDIDDELNELETLIKKKQDEKKSSELELQKLVHDLNKYKSNTNNMEKIIEDLRQKHEFLEDFDLVRNIVKQNEGIDLDTYRERSKQLNEKFQELRKKVNPNIMNMIENVEKKEAALKTMIKTIEKDKMKIQETISKLNEYKRETLVKTWEKVTLDFGNIFADLLPNSFAKLVPCEGKDVTQGLEVKVKLGNIWKESLIELSGGQRSLIALSLIMALLQFRPAPMYILDEVDAALDLSHTQNIGHLIKTRFKGSQFIVVSLKEGMFANANRVFRTRFQDGTSVVSIM
  binding: binds
